In article PMC11850729:
Results are given in words; binding and its absence hold for the method and conditions named. Binding seen in cells or lysates may run through a third protein. Some results given as binding are weak or reduced against the parent protein; the word gives no strength. Sequences can lack the tags named with a protein.

Key:
Assay in all cases: co-IP; U2OS cells transfected with GFP-tagged bait for 24 h; NP-40 lysis buffer (0.5% NP-40, 25 mM Tris pH 7.5, 100 mM NaCl), lysate 1 mg/ml, overnight at 4 °C with GFP-NanoTrap beads; endogenous partner detected by immunoblot; GFP-KIFC1 with endogenous OTUD6B also seen in cells synchronised in mitosis (30 min into mitotic exit) with wild-type or K11-only ubiquitin overexpressed (Fig. 6D)
GFP-OTUD6B-C158S (human) = target: T1, GFP-OTUD6B-C158S (human) (UniProt Q8N6M0)
T1 sequence: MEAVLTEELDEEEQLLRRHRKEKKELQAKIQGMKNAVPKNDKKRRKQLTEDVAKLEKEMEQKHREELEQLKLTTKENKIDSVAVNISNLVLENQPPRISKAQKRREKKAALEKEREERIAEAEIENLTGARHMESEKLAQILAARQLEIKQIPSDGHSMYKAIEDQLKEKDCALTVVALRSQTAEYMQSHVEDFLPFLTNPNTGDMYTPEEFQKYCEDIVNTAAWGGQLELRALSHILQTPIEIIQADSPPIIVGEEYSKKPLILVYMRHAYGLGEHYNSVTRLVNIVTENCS

GFP-OTUD6B WT (human) = target: T2, GFP-OTUD6B WT (human) (UniProt Q8N6M0)
T2 sequence: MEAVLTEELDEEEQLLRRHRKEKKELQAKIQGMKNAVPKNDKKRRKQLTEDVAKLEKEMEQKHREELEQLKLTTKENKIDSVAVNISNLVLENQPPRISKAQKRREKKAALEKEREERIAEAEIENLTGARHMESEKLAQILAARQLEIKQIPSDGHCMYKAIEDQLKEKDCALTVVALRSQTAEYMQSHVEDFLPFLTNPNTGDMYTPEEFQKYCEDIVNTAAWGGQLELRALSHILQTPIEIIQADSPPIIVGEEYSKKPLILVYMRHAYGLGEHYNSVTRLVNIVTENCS

[1] = target: T3, GFP-OTUD6B ΔC (1-146) (human) (UniProt Q8N6M0)
T3 sequence: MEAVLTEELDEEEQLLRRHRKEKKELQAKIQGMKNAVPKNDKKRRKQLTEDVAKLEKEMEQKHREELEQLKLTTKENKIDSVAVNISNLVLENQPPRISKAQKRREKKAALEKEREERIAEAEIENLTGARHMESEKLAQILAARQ

Measured: binding

B1: endogenous KIFC1 (protein, UniProt Q9BW19 1-673)
chain: MDPQRSPLLEVKGNIELKRPLIKAPSQLPLSGSRLKRRPDQMEDGLEPEKKRTRGLGATTKITTSHPRVPSLTTVPQTQGQTTAQKVSKKTGPRCSTAIATGLKNQKPVPAVPVQKSGTSGVPPMAGGKKPSKRPAWDLKGQLCDLNAELKRCRERTQTLDQENQQLQDQLRDAQQQVKALGTERTTLEGHLAKVQAQAEQGQQELKNLRACVLELEERLSTQEGLVQELQKKQVELQEERRGLMSQLEEKERRLQTSEAALSSSQAEVASLRQETVAQAALLTEREERLHGLEMERRRLHNQLQELKGNIRVFCRVRPVLPGEPTPPPGLLLFPSGPGGPSDPPTRLSLSRSDERRGTLSGAPAPPTRHDFSFDRVFPPGSGQDEVFEEIAMLVQSALDGYPVCIFAYGQTGSGKTFTMEGGPGGDPQLEGLIPRALRHLFSVAQELSGQGWTYSFVASYVEIYNETVRDLLATGTRKGQGGECEIRRAGPGSEELTVTNARYVPVSCEKEVDALLHLARQNRAVARTAQNERSSRSHSVFQLQISGEHSSRGLQCGAPLSLVDLAGSERLDPGLALGPGERERLRETQAINSSLSTLGLVIMALSNKESHVPYRNSKLTYLLQNSLGGSAKMLMFVNISPLEENVSESLNSLRFASKVNQCVIGTAQANRK
binds: GFP-OTUD6B-C158S (human) | GFP-OTUD6B WT (human) | [1]
